Where a chain is given by its changes, count along the chain named. In names and notes the source's numbering stands. Results are given in words; binding and its absence hold for the method and conditions named. Some binding calls cover weakened binding; strength is not graded here. Tags and fused reporters may be left off the sequences shown.
B1: dimeric kinesin construct KIF21A-552 (residues 1-552, SNAP tag, His6), wild type (domain or fragment, UniProt Q9QXL2 1-552)
chain: MLGAADESSVRVAVRIRPQLAKEKIEGCHICTSVTPGEPQVFLGKDKAFTFDYVFDIDSQQEQIYTQCIEKLIEGCFEGYNATVFAYGQTGAGKTYTMGTGFDVNIMEEEQGIISRAVRHLFKSIDEKKTSAIKNGLPPPEFKVNAQFLELYNEEVLDLFDTTRDIDAKNKKSNIRIHEDSTGGIYTVGVTTRTVNTEPEMMQCLKLGALSRTTASTQMNVQSSRSHAIFTIHVCQTRVCPQTDAENATDNKLISESSPMNEFETLTAKFHFVDLAGSERLKRTGATGERAKEGISINCGLLALGNVISALGDKSKRATHVPYRDSKLTRLLQDSLGGNSQTIMIACVSPSDRDFMETLNTLKYANRARNIKNKVMVNQDRASQQINALRSEITRLQMELMEYKTGKRIIDEEGVESINDMFHENAMLQTENNNLRVRIKAMQETVDALRARITQLVSEQANQVLARAGEGNEEISNMIHSYIKEIEDLRAKLLESEAVNENLRKNLTRATARSPYFSASSAFSPTILSSDKETIEIIDLAKKDLEKLKRKE
modifications: fluorescent dye BG-549 (SNAP-surface 549) on the SNAP tag
B2: D325R KIF21A, dimeric construct KIF21A-552 (residues 1-552, SNAP tag, His6) (domain or fragment, UniProt Q9QXL2 1-552)
chain: B1 chain with D325R
modifications: fluorescent dye BG-549 (SNAP-surface 549) on the SNAP tag

Protein sequences, listed by entry. Tags and fused reporters are not part of them. Lines headed by an entry give the natural chain unless they say otherwise; changes in a name come on top.
UniProt P68363: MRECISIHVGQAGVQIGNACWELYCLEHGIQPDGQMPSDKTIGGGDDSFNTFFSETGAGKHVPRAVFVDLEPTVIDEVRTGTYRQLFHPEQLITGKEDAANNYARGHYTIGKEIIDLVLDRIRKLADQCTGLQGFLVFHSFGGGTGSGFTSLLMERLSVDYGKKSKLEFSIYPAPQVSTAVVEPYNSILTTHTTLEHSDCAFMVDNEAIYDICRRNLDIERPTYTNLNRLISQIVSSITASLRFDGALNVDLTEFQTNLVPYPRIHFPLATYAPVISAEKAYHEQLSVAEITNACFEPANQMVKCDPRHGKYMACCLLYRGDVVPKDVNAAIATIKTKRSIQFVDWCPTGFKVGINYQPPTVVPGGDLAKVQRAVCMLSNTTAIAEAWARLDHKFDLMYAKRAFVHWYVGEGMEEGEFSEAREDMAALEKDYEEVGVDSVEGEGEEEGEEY
UniProt Q13509: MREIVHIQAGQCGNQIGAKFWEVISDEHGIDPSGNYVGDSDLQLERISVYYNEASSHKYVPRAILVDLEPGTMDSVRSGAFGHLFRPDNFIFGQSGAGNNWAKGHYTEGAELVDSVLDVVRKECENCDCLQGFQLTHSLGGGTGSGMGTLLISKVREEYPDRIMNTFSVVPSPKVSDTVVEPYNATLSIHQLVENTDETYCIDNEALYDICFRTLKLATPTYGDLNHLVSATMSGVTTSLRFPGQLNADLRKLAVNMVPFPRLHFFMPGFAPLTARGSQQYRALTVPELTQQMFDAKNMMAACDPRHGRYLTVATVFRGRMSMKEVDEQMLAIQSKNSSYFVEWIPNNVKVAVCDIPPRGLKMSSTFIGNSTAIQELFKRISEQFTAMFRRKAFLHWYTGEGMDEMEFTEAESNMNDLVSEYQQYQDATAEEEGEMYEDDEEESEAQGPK

What was measured:
[1] = biological target: microtubules of recombinant human TUBA1B/TUBB3 tubulin, wild type (human) (UniProt P68363+Q13509); assay: single-molecule motility assay (total internal reflection fluorescence microscopy); KIF21A constructs on WT, R262A or R262H MTs; concentration not told; both purified
[2] = biological target: microtubules of recombinant human TUBA1B/TUBB3 tubulin with TUBB3 R262A (human) (UniProt P68363+Q13509); assay: as above

| Binder | binding [1] | binding [2] |
| --- | --- | --- |
| B1 | binds | – |
| B2 | – | binds |
